# In the supplement of paper PMC12819154, “High-throughput peptide-centric local stability assay extends protein–ligand identification to membrane proteins, tissues and bacteria” (Nature Structural & Molecular Biology, 2025):
# Sequences of proteins named here, by UniProt entry; tags and fusion partners are left off. A change or cut given only in a name is not applied to a line headed by its entry.
# UniProt Q06067: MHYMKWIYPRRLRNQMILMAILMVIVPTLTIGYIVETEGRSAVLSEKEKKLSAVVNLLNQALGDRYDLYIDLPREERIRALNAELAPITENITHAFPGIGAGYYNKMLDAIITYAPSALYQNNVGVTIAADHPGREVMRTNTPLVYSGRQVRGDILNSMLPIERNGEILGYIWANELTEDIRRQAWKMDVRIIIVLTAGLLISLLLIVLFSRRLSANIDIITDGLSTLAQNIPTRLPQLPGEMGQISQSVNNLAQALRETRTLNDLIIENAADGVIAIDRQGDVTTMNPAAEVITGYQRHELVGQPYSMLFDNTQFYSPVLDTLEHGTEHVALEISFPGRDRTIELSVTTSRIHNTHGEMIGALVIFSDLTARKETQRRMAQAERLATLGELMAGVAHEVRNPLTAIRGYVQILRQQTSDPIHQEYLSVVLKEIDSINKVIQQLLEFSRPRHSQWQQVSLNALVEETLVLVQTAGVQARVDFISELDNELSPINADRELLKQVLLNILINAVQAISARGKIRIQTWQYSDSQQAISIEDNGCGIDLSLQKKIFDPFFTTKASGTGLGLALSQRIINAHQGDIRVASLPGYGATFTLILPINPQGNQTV
# UniProt P77690: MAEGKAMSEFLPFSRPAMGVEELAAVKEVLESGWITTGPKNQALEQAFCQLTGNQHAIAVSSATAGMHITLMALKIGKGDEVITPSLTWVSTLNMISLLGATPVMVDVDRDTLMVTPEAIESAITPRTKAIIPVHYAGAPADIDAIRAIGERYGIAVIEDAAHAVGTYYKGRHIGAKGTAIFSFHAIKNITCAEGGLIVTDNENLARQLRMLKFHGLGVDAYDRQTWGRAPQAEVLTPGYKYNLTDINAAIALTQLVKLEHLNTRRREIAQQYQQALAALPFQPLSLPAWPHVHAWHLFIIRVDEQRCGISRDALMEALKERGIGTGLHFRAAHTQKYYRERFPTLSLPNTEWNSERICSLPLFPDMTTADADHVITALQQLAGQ
# UniProt Q46809: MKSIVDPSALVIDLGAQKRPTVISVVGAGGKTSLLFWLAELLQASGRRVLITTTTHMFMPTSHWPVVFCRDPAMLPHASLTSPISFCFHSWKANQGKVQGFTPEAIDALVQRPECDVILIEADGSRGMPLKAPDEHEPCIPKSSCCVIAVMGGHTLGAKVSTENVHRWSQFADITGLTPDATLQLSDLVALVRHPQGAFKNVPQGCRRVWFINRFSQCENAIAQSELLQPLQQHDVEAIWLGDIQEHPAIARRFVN
# UniProt P77339: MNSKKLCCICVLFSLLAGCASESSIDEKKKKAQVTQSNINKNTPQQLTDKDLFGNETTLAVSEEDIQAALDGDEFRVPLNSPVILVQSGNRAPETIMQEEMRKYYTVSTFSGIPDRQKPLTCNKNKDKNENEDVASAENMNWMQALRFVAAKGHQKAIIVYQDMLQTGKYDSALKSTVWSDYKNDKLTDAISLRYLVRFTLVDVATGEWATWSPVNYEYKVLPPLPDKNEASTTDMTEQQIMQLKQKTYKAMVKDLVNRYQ
# UniProt P77295: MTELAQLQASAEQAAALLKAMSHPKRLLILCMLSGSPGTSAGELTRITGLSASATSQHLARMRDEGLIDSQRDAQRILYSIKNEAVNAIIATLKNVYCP
# UniProt P77475: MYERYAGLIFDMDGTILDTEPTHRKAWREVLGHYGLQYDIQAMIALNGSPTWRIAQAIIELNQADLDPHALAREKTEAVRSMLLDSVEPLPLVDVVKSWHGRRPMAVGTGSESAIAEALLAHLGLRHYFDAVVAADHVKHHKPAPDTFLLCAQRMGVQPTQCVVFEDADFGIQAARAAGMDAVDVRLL
# UniProt V9HVX0: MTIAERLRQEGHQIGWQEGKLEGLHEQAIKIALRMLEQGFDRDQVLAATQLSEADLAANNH
# UniProt Q47083: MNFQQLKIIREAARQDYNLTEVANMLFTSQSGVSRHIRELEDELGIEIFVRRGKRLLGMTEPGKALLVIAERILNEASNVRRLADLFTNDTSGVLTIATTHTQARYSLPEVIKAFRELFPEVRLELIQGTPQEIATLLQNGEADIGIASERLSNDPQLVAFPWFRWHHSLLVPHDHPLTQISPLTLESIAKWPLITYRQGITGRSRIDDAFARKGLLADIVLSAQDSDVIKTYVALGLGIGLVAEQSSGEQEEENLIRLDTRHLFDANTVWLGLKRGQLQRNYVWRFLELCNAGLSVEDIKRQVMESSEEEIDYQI
# UniProt Q47141: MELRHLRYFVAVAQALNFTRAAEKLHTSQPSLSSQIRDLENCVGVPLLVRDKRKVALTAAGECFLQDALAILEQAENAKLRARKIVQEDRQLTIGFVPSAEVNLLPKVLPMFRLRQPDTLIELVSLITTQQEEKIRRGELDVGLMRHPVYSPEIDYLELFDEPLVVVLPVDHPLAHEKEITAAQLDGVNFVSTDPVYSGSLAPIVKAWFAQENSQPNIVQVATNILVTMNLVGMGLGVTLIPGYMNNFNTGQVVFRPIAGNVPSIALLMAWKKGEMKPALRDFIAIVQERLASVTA
# UniProt P77554: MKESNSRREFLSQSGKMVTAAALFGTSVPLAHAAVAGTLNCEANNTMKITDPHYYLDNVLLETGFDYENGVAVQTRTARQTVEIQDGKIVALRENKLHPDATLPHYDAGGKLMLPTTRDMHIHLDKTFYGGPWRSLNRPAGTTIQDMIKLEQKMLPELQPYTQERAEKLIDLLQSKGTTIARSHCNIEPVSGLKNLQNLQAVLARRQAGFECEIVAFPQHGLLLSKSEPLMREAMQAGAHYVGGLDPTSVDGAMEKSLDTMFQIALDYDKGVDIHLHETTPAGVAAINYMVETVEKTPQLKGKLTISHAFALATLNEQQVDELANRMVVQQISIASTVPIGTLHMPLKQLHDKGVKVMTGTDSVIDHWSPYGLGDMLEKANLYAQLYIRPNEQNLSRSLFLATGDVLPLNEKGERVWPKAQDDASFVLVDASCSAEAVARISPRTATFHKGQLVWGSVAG
# UniProt P77329: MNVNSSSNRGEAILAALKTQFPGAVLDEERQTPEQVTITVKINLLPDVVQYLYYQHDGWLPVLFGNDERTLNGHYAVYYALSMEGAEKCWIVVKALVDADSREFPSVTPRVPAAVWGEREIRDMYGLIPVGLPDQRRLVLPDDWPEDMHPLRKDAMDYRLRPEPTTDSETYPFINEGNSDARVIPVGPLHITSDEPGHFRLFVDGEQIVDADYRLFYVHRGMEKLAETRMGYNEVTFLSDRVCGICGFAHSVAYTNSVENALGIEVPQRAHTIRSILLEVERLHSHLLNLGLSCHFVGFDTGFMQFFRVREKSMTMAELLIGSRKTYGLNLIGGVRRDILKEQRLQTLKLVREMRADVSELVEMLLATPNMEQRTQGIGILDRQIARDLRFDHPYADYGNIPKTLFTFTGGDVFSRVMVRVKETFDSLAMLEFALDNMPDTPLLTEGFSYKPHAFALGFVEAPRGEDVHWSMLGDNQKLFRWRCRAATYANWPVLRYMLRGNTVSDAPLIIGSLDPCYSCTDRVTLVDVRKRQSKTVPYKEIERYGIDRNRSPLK
# UniProt Q47156: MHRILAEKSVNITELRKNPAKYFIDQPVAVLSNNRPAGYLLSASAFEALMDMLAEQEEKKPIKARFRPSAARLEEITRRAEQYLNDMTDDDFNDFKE
# UniProt Q46829: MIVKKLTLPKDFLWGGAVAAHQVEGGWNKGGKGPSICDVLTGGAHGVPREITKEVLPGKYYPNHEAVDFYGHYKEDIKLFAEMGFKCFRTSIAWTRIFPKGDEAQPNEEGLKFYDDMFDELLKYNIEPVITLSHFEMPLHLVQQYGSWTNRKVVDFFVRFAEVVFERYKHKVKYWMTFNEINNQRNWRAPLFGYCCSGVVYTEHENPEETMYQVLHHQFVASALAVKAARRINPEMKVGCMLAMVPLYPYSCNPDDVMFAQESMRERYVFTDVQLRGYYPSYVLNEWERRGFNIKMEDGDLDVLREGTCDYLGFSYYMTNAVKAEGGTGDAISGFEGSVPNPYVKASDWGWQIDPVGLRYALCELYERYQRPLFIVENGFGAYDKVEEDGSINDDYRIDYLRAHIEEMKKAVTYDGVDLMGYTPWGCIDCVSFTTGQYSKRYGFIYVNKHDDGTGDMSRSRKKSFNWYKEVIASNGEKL
# UniProt P77348: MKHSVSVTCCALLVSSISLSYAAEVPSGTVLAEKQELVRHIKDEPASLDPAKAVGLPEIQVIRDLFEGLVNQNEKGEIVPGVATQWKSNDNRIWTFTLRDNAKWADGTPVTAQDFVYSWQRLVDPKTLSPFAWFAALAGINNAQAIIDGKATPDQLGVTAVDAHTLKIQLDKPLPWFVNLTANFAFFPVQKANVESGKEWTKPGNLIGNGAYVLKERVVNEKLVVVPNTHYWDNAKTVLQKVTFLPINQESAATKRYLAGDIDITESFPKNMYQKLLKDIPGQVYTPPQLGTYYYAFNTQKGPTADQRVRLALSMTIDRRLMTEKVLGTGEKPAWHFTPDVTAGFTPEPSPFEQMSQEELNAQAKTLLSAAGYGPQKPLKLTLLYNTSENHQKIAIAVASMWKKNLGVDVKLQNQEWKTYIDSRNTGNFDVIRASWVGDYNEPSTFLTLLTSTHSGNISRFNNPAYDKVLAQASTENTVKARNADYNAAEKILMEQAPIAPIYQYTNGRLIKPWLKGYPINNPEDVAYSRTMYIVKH
# UniProt Q46812: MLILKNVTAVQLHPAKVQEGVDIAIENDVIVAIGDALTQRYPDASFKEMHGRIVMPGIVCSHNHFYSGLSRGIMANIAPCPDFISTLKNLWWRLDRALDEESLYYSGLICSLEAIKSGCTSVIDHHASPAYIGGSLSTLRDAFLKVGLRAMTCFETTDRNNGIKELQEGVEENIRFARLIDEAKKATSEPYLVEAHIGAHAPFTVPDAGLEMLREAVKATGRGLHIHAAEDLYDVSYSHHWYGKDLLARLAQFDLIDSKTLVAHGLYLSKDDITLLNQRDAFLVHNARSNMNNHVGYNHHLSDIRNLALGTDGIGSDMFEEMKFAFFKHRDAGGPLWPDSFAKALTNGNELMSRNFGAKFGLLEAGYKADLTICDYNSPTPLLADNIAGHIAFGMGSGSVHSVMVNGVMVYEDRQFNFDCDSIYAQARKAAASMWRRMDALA
# UniProt P77667: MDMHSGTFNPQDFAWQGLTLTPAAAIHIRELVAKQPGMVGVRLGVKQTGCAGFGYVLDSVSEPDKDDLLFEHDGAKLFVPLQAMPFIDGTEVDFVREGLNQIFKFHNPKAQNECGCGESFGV
# UniProt P77439: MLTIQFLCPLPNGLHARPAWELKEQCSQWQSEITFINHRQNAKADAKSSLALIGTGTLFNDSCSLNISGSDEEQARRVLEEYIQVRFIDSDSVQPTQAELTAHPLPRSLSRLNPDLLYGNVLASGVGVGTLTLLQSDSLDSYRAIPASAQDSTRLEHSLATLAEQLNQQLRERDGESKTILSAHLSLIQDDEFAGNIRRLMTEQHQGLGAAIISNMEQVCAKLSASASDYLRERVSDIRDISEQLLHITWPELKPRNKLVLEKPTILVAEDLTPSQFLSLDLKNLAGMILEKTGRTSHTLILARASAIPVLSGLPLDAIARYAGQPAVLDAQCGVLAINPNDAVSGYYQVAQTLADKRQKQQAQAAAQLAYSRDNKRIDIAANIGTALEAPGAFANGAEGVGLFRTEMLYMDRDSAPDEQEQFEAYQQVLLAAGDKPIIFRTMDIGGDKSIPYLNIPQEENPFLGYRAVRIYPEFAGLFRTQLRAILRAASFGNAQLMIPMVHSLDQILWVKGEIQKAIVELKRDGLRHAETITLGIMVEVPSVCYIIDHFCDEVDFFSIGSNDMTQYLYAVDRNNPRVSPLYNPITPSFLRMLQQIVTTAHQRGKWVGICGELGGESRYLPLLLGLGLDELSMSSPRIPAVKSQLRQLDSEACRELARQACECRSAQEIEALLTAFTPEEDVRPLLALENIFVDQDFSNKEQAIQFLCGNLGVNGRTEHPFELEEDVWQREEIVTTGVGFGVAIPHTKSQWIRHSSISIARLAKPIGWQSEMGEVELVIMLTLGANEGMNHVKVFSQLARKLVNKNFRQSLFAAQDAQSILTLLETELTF
# UniProt P77564: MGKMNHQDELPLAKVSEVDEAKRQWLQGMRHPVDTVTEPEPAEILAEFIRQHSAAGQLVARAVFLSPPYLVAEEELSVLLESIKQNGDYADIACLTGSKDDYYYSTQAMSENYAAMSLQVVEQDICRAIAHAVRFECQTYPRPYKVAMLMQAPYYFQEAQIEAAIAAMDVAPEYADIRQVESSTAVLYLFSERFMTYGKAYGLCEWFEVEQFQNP
# UniProt P77585: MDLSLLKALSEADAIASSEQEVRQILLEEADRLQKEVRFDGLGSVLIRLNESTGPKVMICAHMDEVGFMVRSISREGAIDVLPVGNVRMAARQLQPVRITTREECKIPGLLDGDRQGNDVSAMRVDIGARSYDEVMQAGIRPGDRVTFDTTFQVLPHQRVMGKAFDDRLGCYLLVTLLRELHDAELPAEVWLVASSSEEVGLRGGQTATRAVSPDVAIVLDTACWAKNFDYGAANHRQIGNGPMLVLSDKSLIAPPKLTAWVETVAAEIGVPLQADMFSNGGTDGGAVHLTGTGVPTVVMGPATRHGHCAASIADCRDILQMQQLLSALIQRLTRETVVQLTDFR
# This is a selection; strong and weak results do not stand in their true shares. Most values lie at the level of the controls, where differences are scatter.
# Compound: Nc1ncnc2c1ncn2[C@@H]1O[C@H](COP(=O)(O)OP(=O)(O)OP(=O)(O)O)[C@@H](O)[C@H]1O [adenosine 5'-triphosphate]
# Assay: log2 fold change of tryptic peptide abundance, ligand vs vehicle (limited proteolysis) (log2 ratio); higher = more trypsin-susceptible (destabilized)
# Conditions: ligand concentration: 5 mM; sample: E. coli desalted lysate; replicate design: treated before aliquoting
# Method: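 HT-PELSA: desalted E. coli K-12 BW25113 lysate (with 12 mM MgCl2) incubated with 5 mM ATP (pH 7) or water for 30 min at 25 C, then a 4 min trypsin pulse at 22 C. Peptides were quantified by DIA-MS (4 replicates). Value is the peptide log2 fold change (treated/control); negative = stabilized. Scale: negative = ligand-stabilized region.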
# 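Further: lysate desalted by size exclusion to strip endogenous ATP, peptide intensities built from DIA-NN precursor signals, and peptides missing any value discarded before comparison.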
row,Target,log2 fold change
1,"UniProt Q06067 (peptide sequence: VIQQLLEFSRPR, peptide start residue: 440)",0.717
2,"UniProt P77690 (peptide sequence: LEHLNTR, peptide start residue: 259)",-0.316
3,"UniProt Q46809 (peptide sequence: VSTENVHR, peptide start residue: 160)",0.438
4,"UniProt P77748 (peptide sequence: DHLVATVESYAPLMAR, peptide start residue: 710)",-0.452
5,"UniProt P77396 (peptide sequence: YHLSIHEVAQR, peptide start residue: 245)",0.51
6,"UniProt P77339 (peptide sequence: KAQVTQSNINK, peptide start residue: 31)",0.648
7,"UniProt P77295 (peptide sequence: MRDEGLIDSQR, peptide start residue: 62)",0.223
8,"UniProt P77625 (peptide sequence: RHGLAPEEVLAFIHGK, peptide start residue: 31)",0.668
9,"UniProt P77475 (peptide sequence: AAGMDAVDVR, peptide start residue: 177)",0.0514
10,"UniProt Q46808 (peptide sequence: GETADFTSVSDK, peptide start residue: 500)",0.48
11,"UniProt V9HVX0 (peptide sequence: LEGLHEQAIK, peptide start residue: 21)",-0.428
12,"UniProt Q47083 (peptide sequence: ILNEASNVR, peptide start residue: 73)",-0.396
13,"UniProt Q47141 (peptide sequence: KIVQEDR, peptide start residue: 84)",-0.102
14,"UniProt P77781 (peptide sequence: FEHIGDDTLEATMPVDSR, peptide start residue: 28)",-0.356
15,"UniProt P77554 (peptide sequence: SLNRPAGTTIQDMIK, peptide start residue: 135)",0.367
16,"UniProt P77247 (peptide sequence: NELPDTLGLR, peptide start residue: 44)",0.406
17,"UniProt P77695 (peptide sequence: TGKEVTSIQFTAREK, peptide start residue: 29)",-0.382
18,"UniProt P77489 (peptide sequence: AGIDPVEFR, peptide start residue: 372)",0.47
19,"UniProt P77256 (peptide sequence: KIPLGTTDITLSR, peptide start residue: 3)",0.967
20,"UniProt P77730 (peptide sequence: LFPLQQLNR, peptide start residue: 117)",-0.244
21,"UniProt P77329 (peptide sequence: TQGIGILDR, peptide start residue: 375)",0.441
22,"UniProt Q47156 (peptide sequence: LEEITRR, peptide start residue: 73)",0.537
23,"UniProt Q46829 (peptide sequence: LFAEMGFK, peptide start residue: 79)",-0.411
24,"UniProt P77348 (peptide sequence: VLAQASTENTVK, peptide start residue: 469)",0.198
25,"UniProt Q46812 (peptide sequence: NVTAVQLHPAK, peptide start residue: 6)",-0.277
26,"UniProt P77667 (peptide sequence: EGLNQIFK, peptide start residue: 97)",0.174
27,"UniProt P77439 (peptide sequence: MLQQIVTTAHQR, peptide start residue: 593)",0.878
28,"UniProt P77564 (peptide sequence: QWLQGMR, peptide start residue: 24)",-0.0688
29,"UniProt P77585 (peptide sequence: NFDYGAANHR, peptide start residue: 228)",-0.641
30,"UniProt P77335 (peptide sequence: MINTCNEYQK, peptide start residue: 281)",0.248

# Reprinted at random: 2 entries already listed.
row,Target,log2 fold change
23,"UniProt Q46829 (peptide sequence: LFAEMGFK, peptide start residue: 79)",-0.411
10,"UniProt Q46808 (peptide sequence: GETADFTSVSDK, peptide start residue: 500)",0.48
